Values from PubChem BioAssay AID1259290 (Sanger Institute, 2017)
Assay: 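Kinases whose loss kills colorectal cancer cells alone or alongside targeted drugs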 (primary screen). Cells: human SNUC1 colorectal cancer cells. Reagent: siRNA pool against human genes. Conditions: anchor drugs BYL719 1 µM, cetuximab 5 µg/ml or trametinib 10 nM, or DMSO vehicle alone. Measured: 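Viability averaged over replicates and scaled to non-targeting siRNA, robust z-score with no drug, and synergy scores by drug for BYL719, cetuximab and trametinib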. Scale: viability z-score, siRNA alone: higher = more viable cells; low values mean essential gene; viability vs control, siRNA alone: higher = more viable cells; synergy score with BYL719: higher = stronger synthetic lethal effect with drug. Active means: 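Essential when the robust viability z-score with siRNA alone falls below -3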. Calls: active = essential: knock-down alone cut viability (z below -3); inactive = no clear viability loss with knock-down alone.
This is a random part of 794 reagents. 9 of them (1.1%) count as active. 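Calls rest on knock-down alone, not drug synergy; synergy above 0.15 was grouped apart and does not affect calls.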 A number with no mark means an inactive call. Reagents against one gene are numbered here. No viability above 1 is reported: the scale is capped. Further read-outs or replicates are left out here. Reagent sequences are not shown. Not given: the amount of reagent, the time to read-out.

target | reagent | viability z-score, siRNA alone | viability vs control, siRNA alone | synergy score with BYL719
CAMK1D | 1 | 0.936 | 1 | -0.0412
ITSN1 | 1 | 0.144 | 0.929 | -0.118
ILK | 1 | 0.407 | 0.952 | -0.174
ILK | 2 | 0.936 | 1 | -0.198
NEK11 | 1 | -0.723 | 0.851 | -0.0397
STK39 | 1 | 0.904 | 0.997 | -0.201
DSTYK | 1 | 0.936 | 1 | -0.162
PTPN11 | 1 | -1.26 | 0.802 | -0.146
EPHA6 | 1 | 0.936 | 1 | 0.137
MVK | 1 | -1.18 | 0.81 | -0.199
POMK | 1 | -0.281 | 0.89 | -0.2
ASPM | 1 | -0.384 | 0.881 | -0.225
MAP3K5 | 1 | 0.251 | 0.938 | -0.146
AMHR2 | 1 | 0.936 | 1 | -0.0284
TTBK2 | 1 | 0.936 | 1 | -0.137
NTRK3 | 1 | 0.936 | 1 | 0.0299
PRAG1 | 1 | 0.936 | 1 | -0.0424
CDK13 | 1 | 0.936 | 1 | -0.108
UCKL1 | 1 | 0.936 | 1 | -0.156
TBX3 | 1 | -1.56 | 0.775 | -0.263
GRK5 | 1 | 0.936 | 1 | 0.0324
CDK5R2 | 1 | 0.936 | 1 | -0.157
SLK | 1 | 0.936 | 1 | -0.198
ITPKA | 1 | -1.66 | 0.766 | -0.0458
PRKCI | 1 | 0.927 | 0.999 | -0.171

In a second layout: 3 of the entries above.
{"target": "NTRK3", "reagent": 1, "viability z-score, siRNA alone": 0.936, "viability vs control, siRNA alone": 1, "synergy score with BYL719": 0.0299}
{"target": "PRAG1", "reagent": 1, "viability z-score, siRNA alone": 0.936, "viability vs control, siRNA alone": 1, "synergy score with BYL719": -0.0424}
{"target": "CDK13", "reagent": 1, "viability z-score, siRNA alone": 0.936, "viability vs control, siRNA alone": 1, "synergy score with BYL719": -0.108}

The results go on.
target | reagent | viability z-score, siRNA alone | viability vs control, siRNA alone | synergy score with BYL719
MAP3K6 | 1 | -0.672 | 0.855 | -0.256
EGFR | 1 | 0.213 | 0.935 | -0.156
MARK4 | 1 | 0.549 | 0.965 | -0.226
GUCY2F | 1 | 0.936 | 1 | -0.188
MERTK | 1 | 0.936 | 1 | -0.0452
BMPR1B | 1 | -0.295 | 0.889 | -0.218
PIP5K1C | 1 | -0.981 | 0.827 | 0.0878
MAP4K5 | 1 | -1.04 | 0.822 | -0.136
CRIM1 | 1 | 0.0325 | 0.919 | -0.0466
DGKA | 1 | -0.393 | 0.88 | -0.129
FRK | 1 | 0.587 | 0.969 | -0.223
AK5 | 1 | -0.56 | 0.865 | -0.14
HIPK1 | 1 | 0.936 | 1 | -0.198
LTK | 1 | -0.187 | 0.899 | -0.0479
RSKR | 1 | 0.936 | 1 | 0.0135
PRKDC | 1 | 0.929 | 0.999 | 0.188
IGF2R | 1 | 0.818 | 0.989 | -0.207
TCF7L2 | 1 | 0.936 | 1 | -0.198
SIK1 | 1 | 0.306 | 0.943 | -0.157
KMT2B | 1 | 0.936 | 1 | -0.0563
NADK | 1 | -1.64 | 0.768 | 0.0128
SRPK1 | 1 | 0.936 | 1 | -0.0222
JAK2 | 1 | -2.32 | 0.707 | -0.331
SF3B1 | 1 | -3.32 (active) | 0.617 | -0.181
WIPF1 | 1 | 0.936 | 1 | -0.023
